Data reported in PubChem BioAssay AID1347076 (National Center for Advancing Translational Sciences (NCATS), 2019).
About 13,000 (3.2%) of roughly 400,000 compounds were called active. This list was built around the results that the source calls inconclusive (neither active nor inactive); the mix of calls is not that of the screen. The call rests on the fitted dose curve; in most records, active means well fitted cell-killing curve with a large enough effect; inconclusive means small, poorly fitted or top-dose-only effect, or effect the other way; inactive means flat fitted curve, though single readings scatter. Potencies beside an inconclusive call are fits to weak or partial responses and may not hold up.

experiment: qHTS assay for MDR1-selective chemotherapeutics: Primary screen using the drug-selected MDR subline cells KB-V1; settings: KB-V1 MDR cells viability, CellTiter-Glo, 72 h; activity change, negative = cytotoxicity: at 46.1 µM (top of the series); further: nearly all actives have a fitted effect of over 60% in size
How it was run: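 In this primary screen, KB-V1 cells overexpressing P-gp are incubated with library compounds (lowest to highest concentration) for 72 h at 37 degrees C before a luminescent ATP viability read.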
On the % scale 0 is the no-effect control and ±100 the full control effect; potency means the concentration at half of the fitted maximal effect.

Question: With `CCCSC1=C(C#N)C2(CCCCC2)C(C#N)=C(N)N1` as the molecule, how does the Potency read?
Answer: inconclusive: 23.1 µM [cytotoxic, partial curve, poor fit]

Question: Which Potency does the source give for `CC(C(=O)Nc1ccc(Br)cc1)N(C)CC(=O)NCc1ccco1` (centres undefined) here?
Answer: inconclusive: 14.6 µM [cytotoxic, single point]

Question: For `COc1ccc(OCc2n[nH]c(=S)o2)cc1`, which Potency is on record?
Answer: inconclusive: 16.4 µM [cytotoxic, single point]

Question: Which Potency does the source give for `CC(C)(C)C(=O)N1CCN(c2ncnc3scc(-c4ccccc4)c23)CC1` here?
Answer: active: 14.6 µM

Question: For `CCCCCCCCN1C(=O)[C@H](CC(=O)NCc2ccc(OC)c(OC)c2)C[C@@]2(C(=O)OC)CCCCC=C12`, which Potency is on record?
Answer: inconclusive: 11.6 µM [cytotoxic, partial curve]

Question: With `O=C(CCNC(=O)c1ccc(Cl)cc1)Nc1cccc(S(=O)(=O)N2CCCCCC2)c1` as the molecule, how does the Potency read?
Answer: inconclusive: 29.1 µM [cytotoxic, single point]

Question: With `COc1ccc(Cn2c(N)c(C#N)c3nc4ccccc4nc32)cc1` as the molecule, how does the Potency read?
Answer: inconclusive: 14.6 µM [cytotoxic, partial curve]

Question: With `CCN(CC)C(=O)CSc1nnc(CNc2ccc(F)cc2)n1Cc1ccco1` as the molecule, how does the “activity change, negative = cytotoxicity” value read?
Answer: inactive: -7.12%

Question: Which “activity change, negative = cytotoxicity” value does the source give for `COC(=O)c1ccc(NC(=O)Nc2ccc([N+](=O)[O-])cc2)cc1` here?
Answer: inactive: -6.25%

Question: Which “activity change, negative = cytotoxicity” value does the source give for `CC(C)Cn1c(N)c(C(=O)COC(=O)c2ccc(O)cc2O)c(=O)n(C)c1=O` here?
Answer: inactive: 0.164%

Question: With `Cc1nn(-c2ccccc2)c(Cl)c1C1C(C#N)=C(N)OC2=C1C(=O)CC(C)(C)C2` (centres undefined) as the molecule, how does the Potency read?
Answer: inconclusive: 29.1 µM [cytotoxic, single point]

Question: Which “activity change, negative = cytotoxicity” value does the source give for `Cc1ccc(Cl)cc1NC(=O)C(NS(=O)(=O)c1cccc2nsnc12)c1ccccc1` (centres undefined) here?
Answer: inactive: -16.6%

Question: Which Potency does the source give for `CCCC(=O)C1=C(O)C(C(=O)OC)C(C)(C)CC1=Nc1ccc(OC)cc1` (centres undefined) here?
Answer: inconclusive: 29.1 µM [cytotoxic, single point]

Question: With `Cc1ccc(S(=O)(=O)c2nc(NCCN(C)C)sc2Cl)cc1` as the molecule, how does the Potency read?
Answer: inconclusive: 16.4 µM [cytotoxic, partial curve, poor fit]

Question: For `CCOC(=O)c1nc(Nc2ccc(C)cc2)c2ccccc2n1`, which Potency is on record?
Answer: inconclusive: 11.6 µM [cytotoxic, partial curve]

Question: For `CCOc1ccccc1N(CC(=O)NC1CCCCC1)S(=O)(=O)c1ccccc1`, which Potency is on record?
Answer: inconclusive: 10.3 µM [cytotoxic, partial curve, poor fit]

Question: With `CCn1ncc(C2C(C(=O)Nc3ccc(C)cn3)=C(C)NC3=C2C(=O)CCC3)c1C` (centres undefined) as the molecule, how does the Potency read?
Answer: inconclusive: 23.1 µM [rising, single point]

Question: For `O=C(CSc1nc2ccccc2n1S(=O)(=O)c1cccc([N+](=O)[O-])c1)NCCc1ccccc1`, which Potency is on record?
Answer: active: 3.66 µM

Question: For `CC1(C(=O)NS(=O)(=O)c2cccc(OC(F)F)c2)CCN1C(=O)C/C=C/c1ccccc1` (centres undefined), which “activity change, negative = cytotoxicity” value is on record?
Answer: inactive: 1.66%

Question: Which “activity change, negative = cytotoxicity” value does the source give for `COc1cc2c(cc1OC)CN(CC(=O)Nc1ccccc1C(=O)NC1CC1)CC2` here?
Answer: inactive: -1.91%

Question: For `Cc1[nH]c2ccccc2c1C(O)CN1CCN(c2cccc(C(F)(F)F)c2)CC1` (centres undefined), which Potency is on record?
Answer: inconclusive: 16.4 µM [cytotoxic, single point]

Question: With `C/C(=N\Nc1cccc2cccnc12)c1ccccn1` as the molecule, how does the Potency read?
Answer: inconclusive: 18.4 µM [cytotoxic, single point]

Question: Which “activity change, negative = cytotoxicity” value does the source give for `O=C(N/N=C/c1ccncc1)c1cccc(NC(=O)c2ccc(Cl)cc2)c1` here?
Answer: inactive: 7.98%

Question: Which Potency does the source give for `Cc1[nH]n(-c2ccc([N+](=O)[O-])cc2)c(=O)c1C=NCCc1c(C)[nH]c2ccccc12` here?
Answer: active: 16.4 µM

Question: With `CCN(CC(=O)N1CCC(C(N)=O)CC1)S(=O)(=O)c1cc(Cl)ccc1Cl` as the molecule, how does the “activity change, negative = cytotoxicity” value read?
Answer: inactive: 0%

Question: For `CC(=O)N1CCC(=NNC(=O)c2cc3ccccc3cc2O)CC1`, which Potency is on record?
Answer: inconclusive: 4.61 µM [cytotoxic, full curve, poor fit]

Question: Which “activity change, negative = cytotoxicity” value does the source give for `COc1cc(C(=O)OCC(=O)NC2CC2)cc(OC)c1OC` here?
Answer: inactive: 0%

Question: For `Cn1c(=O)oc2cc(S(=O)(=O)CCC(=O)NCCc3ccccc3)ccc21`, which Potency is on record?
Answer: inconclusive: 5.8 µM [rising, partial curve, poor fit]

Question: Which “activity change, negative = cytotoxicity” value does the source give for `CSc1nc(NCC(C)O)c2c3c(sc2n1)CN(C)CC3` (centres undefined) here?
Answer: inactive: -2.1%

Question: Which Potency does the source give for `O=C(CN(Cc1ccccc1)S(=O)(=O)c1ccc2c(c1)OCCO2)Nc1ccc2c(c1)OCCO2` here?
Answer: inconclusive: 5.17 µM [cytotoxic, partial curve]

Question: Which Potency does the source give for `Cc1c(C(=O)OC2CCCCC2)[nH]c2c1C(=O)CC(c1ccccc1Cl)C2` (centres undefined) here?
Answer: inconclusive: 3.26 µM [cytotoxic, full curve, poor fit]

Question: With `CN(CC(=O)Nc1ccc(S(=O)(=O)N2CCCC2)cc1)Cc1cccc(Cl)c1Cl` as the molecule, how does the Potency read?
Answer: active: 18.4 µM

Question: With `CCOC(=O)C1CCCN(C(=O)c2cccc(C(F)(F)F)c2)CC1` (centres undefined) as the molecule, how does the “activity change, negative = cytotoxicity” value read?
Answer: inactive: 1.09%

Question: With `Cc1cccc(-c2cc(NC=O)c3ncc(-c4cccc(C(=O)N(C)C)c4)n3c2)c1` as the molecule, how does the Potency read?
Answer: inconclusive: 29.1 µM [cytotoxic, partial curve, poor fit]

Question: For `COc1ccc(C[C@H]2CN3C(=NC[C@@H]3C(C)C)N2CCNC(=O)c2ccc(C)c(Br)c2)cc1`, which Potency is on record?
Answer: inconclusive: 32.6 µM [cytotoxic, single point]

Question: With `O=C(NCc1cccs1)C1CCC(CNS(=O)(=O)c2ccccc2)CC1` (centres undefined) as the molecule, how does the Potency read?
Answer: inconclusive: 29.1 µM [cytotoxic, single point]

Question: Which Potency does the source give for `CC(C)CCn1c(CN(C)Cc2ccccc2)nc2c1c(=O)n(C)c(=O)n2C` here?
Answer: active: 9.2 µM

Question: For `O=C(Nc1ccccc1Cl)c1ccccc1Cc1ccccc1`, which “activity change, negative = cytotoxicity” value is on record?
Answer: inactive: -11.4%

Question: With `O=C(Nc1ccc(-c2nc3ccccc3[nH]2)cc1)C1CCCO1` (centres undefined) as the molecule, how does the Potency read?
Answer: inconclusive: 23.1 µM [cytotoxic, single point]

Question: With `O=C(CCCOc1ccc(Cl)cc1Cl)N1CCc2ccccc2C1` as the molecule, how does the Potency read?
Answer: inconclusive: 29.1 µM [cytotoxic, partial curve, poor fit]

Question: Which Potency does the source give for `C/C(=N\NC(=O)c1ccc(O)cc1)c1ccc2c(c1)Nc1ccccc1S2` here?
Answer: inconclusive: 29.1 µM [cytotoxic, single point]

Question: For `Cc1ccc(Cl)cc1OCC(=O)NCCOC(=O)Nc1sc(=S)n(C)c1C`, which Potency is on record?
Answer: active: 13 µM

Question: Which Potency does the source give for `Cc1cc(OCCn2ccnc2)cc(C(C)C)c1` here?
Answer: inconclusive: 18.4 µM [cytotoxic, single point]

Question: Which Potency does the source give for `CC(C)(C)c1ccc(C(=O)NCCC(=O)Nc2ccc3c(c2)OCCO3)cc1` here?
Answer: inconclusive: 11.6 µM [cytotoxic, partial curve, poor fit]
